Assay results published in the supplement of paper PMC3334620.
The full ranking holds about 33,000 sequences; the median of “E-score (-0.5 to 0.5)” is about -0.016, and the highest 2% start at about 0.3. This is one part of the list.

target: T1, Yer184c (UniProt P39961); assay: PBM E-score (8-mer binding enrichment) (E-score (-0.5 to 0.5)); higher = stronger / more preferred TF binding; conditions: protein concentration: 100 nM; construct: GST-full length
T1 sequence: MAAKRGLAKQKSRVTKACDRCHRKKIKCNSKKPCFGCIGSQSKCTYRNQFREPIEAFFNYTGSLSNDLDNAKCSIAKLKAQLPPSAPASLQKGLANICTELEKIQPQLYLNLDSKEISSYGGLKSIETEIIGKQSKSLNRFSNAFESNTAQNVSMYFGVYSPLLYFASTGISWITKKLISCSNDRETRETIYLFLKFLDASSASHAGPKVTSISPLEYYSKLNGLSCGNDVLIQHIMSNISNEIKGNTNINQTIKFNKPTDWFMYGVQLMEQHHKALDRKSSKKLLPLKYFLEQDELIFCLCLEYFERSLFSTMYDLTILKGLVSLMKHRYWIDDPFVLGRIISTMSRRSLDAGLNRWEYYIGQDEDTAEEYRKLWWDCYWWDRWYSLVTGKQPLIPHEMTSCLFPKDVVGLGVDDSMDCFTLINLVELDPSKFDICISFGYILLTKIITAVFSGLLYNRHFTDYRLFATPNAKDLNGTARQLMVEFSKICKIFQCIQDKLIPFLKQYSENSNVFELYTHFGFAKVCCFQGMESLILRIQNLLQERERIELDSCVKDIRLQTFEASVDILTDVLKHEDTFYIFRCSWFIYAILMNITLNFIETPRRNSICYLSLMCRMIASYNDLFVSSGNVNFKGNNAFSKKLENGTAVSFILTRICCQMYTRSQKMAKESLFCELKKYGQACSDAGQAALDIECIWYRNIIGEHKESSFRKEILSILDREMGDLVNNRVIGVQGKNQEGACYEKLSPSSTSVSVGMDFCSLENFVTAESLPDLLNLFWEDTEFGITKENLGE
How it was run: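 For each ungapped eight-base word taken together with its reverse complement, the Universal PBM Analysis Suite assigned an E-score. Binding data came from GST-tagged yeast transcription factors, applied at about 100-200 nM, on universal all-10-mer Agilent arrays made double-stranded by primer extension. Fluorescent anti-GST marked bound protein, and scans were normalised with masliner.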

Sequence | PBM E-score
GGAAGTAC | 0.0685
GTGCTGAA | -0.105
GTCCCGAC | 0.0165
ACCGACGA | 0.14
AATATGTG | 0.212
CGTCAAAG | -0.0597
CCTTATAA | 0.0799
TCAGCGGA | 0.132
GTGTGGGA | -0.0509
CGAAAACG | 0.176
CATTCATC | -0.114
AGCATGAG | -0.147
CGTTTCAG | 0.133
CATTTACC | 0.0454
CACAGTCA | -0.168
ACGTACCC | -0.109
CCAAAAGC | 0.0422
CAGGCATC | -0.177
AGCATACC | -0.196
AGGATTAT | -0.00175
ACAACTCG | 0.127
ATCGAACC | 0.076
ACAGTACC | 0.0654
CGGATGGA | 0.207
GCCTTATA | -0.0774

Sequence | PBM E-score
AATGATCT | -0.004
AGACGACC | -0.185
AAAGAAAG | 0.0977
AGCGACCT | -0.184
GCTAGTCC | -0.116
AATTCTCA | 0.0489
AATAGCAT | -0.00536
AGCTCTGA | -0.246
AACCAGGT | -0.0811
ACTTTCGC | -0.145
AGGGCCGC | -0.233
AACCGCGC | 0.0732
GAAGTTCA | 0.122
AGGTGGAG | -0.286
GAAACAAA | 0.173
CTAGCTAG | -0.0127
CGATGCGA | -0.0338
GCGCCAGC | -0.0829
ACAGGGGG | -0.339
AAATGGAT | -0.101
ATCCCGGA | 0.274
CAACCAGC | -0.179
CGAGTATC | -0.131
TGCAAAAA | 0.00535
GGGGATTA | -0.232

Sequence | PBM E-score
ATCGTGGC | -0.101
ATTTCTCG | 0.308
CCGGTTGA | 0.321
GGCTGATA | -0.0442
AGGAGCGC | -0.0781
ACGAGCGG | -0.162
GAATTACC | 0.165
GGCTGCCC | -0.0502
GTACGGAC | 0.203
TATGAGAA | 0.0707
AGGAACAT | 0.00633
CTCAGCTA | -0.106
AGAAACTA | -0.0263
AATTCCGT | 0.328
CCCCGACA | -0.0219
CAATTCAC | 0.145
TGAGCACA | 0.0117
ACGTACCT | -0.268
CCTCACGC | 0.0151
ACGCATGA | -0.177
CGGTGCAA | -0.0375
TGCCGCAA | 0.135
CTCACCAG | -0.139
ACCAAGTC | 0.0425
ACCATGGA | -0.233

Sequence | PBM E-score
CGTGTCTA | -0.0239
GCGTGGAC | -0.154
GCGACGCA | -0.0707
TGTACTAA | 0.108
ACGCGAAC | -0.0697
CGAGATAC | 0.131
GTGGTCAA | -0.142
GAAATACA | -0.0184
AAGAAGAG | 0.0534
CTCTGGGA | -0.147
AGTGGGCA | -0.0949
AGTCCACC | -0.0989
GATCAATA | 0.164
CGTCCACG | -0.0331
CAAGTAGC | -0.216
ATAATTCG | 0.0636
CGGGCTAC | 0.00991
AGCTTTTA | 0.0954
CTAACTGA | 0.113
ATCAAAAA | 0.164
GATATCCA | 0.0875
CGTGACTC | -0.197
CGTCACAC | -0.167
CCCTCCAC | -0.266
CAGCAGGG | -0.351

A second format for part of the listing above.
Sequence	PBM E-score
AGTGGGCA	-0.0949
GATCAATA	0.164

Exported as tab-separated lines: part of the list above
Sequence	PBM E-score
GCGTGGAC	-0.154
GCGACGCA	-0.0707
CAGCAGGG	-0.351

Next part.

Sequence | PBM E-score
ATTACCAG | -0.00578
ACATCTCA | -0.0525
ACAACTGG | -0.142
TTCTAGAA | 0.0755
ACGGGTCC | -0.00653
ATAAGACG | -0.121
ACCGCGCG | 0.22
TATCCTGA | 0.0496
GCACAGGC | -0.133
CAGACGGC | -0.0755
CGGGCCGC | 0.137
AGCAGGCG | 0.0901
GACGTTGA | 0.0159
AACATTAG | -0.193
TACAAAAA | 0.153
CCTGCCGA | 0.113
TCCATAGA | 0.0746
GTACACTA | -0.031
CTATGGCC | -0.185
CCCGAGGC | -0.013
ATGCCAAG | -0.148
ACGGGTTA | -0.281
CCAACTCG | -0.0499
CCCTGGAA | -0.291
AGCACGGA | 0.11

Sequence | PBM E-score
ACACACCC | -0.0674
ACGTATCC | -0.154
TGGATAAA | 0.18
CGTTGTCC | 0.178
CCCGGGAC | 0.238
CTTGTGTC | -0.0357
TCACAAAA | 0.205
GATTAAAA | 0.296
CACATGGC | 0.0835
AGAAGACC | -0.144
AGGTTCAT | -0.121
CGTAACTC | -0.0641
CATACCAC | 0.0462
CCGCGTGC | -0.013
AGTCGCGA | 0.112
TAGTGTGA | -0.0491
AGCTATCC | -0.128
CTGTACTA | 0.185
ACAAATGG | -0.117
CTACACGC | -0.291
AAGTTACA | -0.0365
ACTTACTA | -0.118
CTTTCTAA | 0.272
ATACCCCA | -0.122
AGGATCAA | 0.14

Sequence | PBM E-score
ATAATCTG | -0.0596
AAATCCCT | -0.153
CAAGATCA | -0.12
ACCCCACC | 0.0874
CGACTCAG | -0.0669
CGAGAGAG | 0.166
GTCGTTGA | -0.0823
CCATTAGG | -0.285
GGCGGCCC | -0.254
AACATTCA | -0.0155
CGAACGAG | -0.15
AATACGAC | -0.0663
AATCTGGA | 0.0411
AGCGGCTC | 0.106
GGCCATAA | -0.102
CCGGATAC | 0.257
AATACATC | 0.124
CCTTAAAC | 0.00871
CGGACCGA | 0.402
CACCGCGG | 0.242
ACCTCACA | -0.0804
ACCTCGAG | 0.0316
CATTATTA | 0.0899
GCAAGGTA | -0.0603
CAGCCCCA | -0.279

Sequence | PBM E-score
GGATACAA | 0.117
CCTATGAA | -0.0384
TGGGGACA | -0.2
GAGTCTCA | -0.137
AGACATTA | 0.0119
CAAAGGCG | -0.0505
ATTGTGAA | 0.0416
CTGTTCTC | 0.03
CGACAAAG | 0.162
AAGTTTTC | 0.17
ATTCCTGC | 0.0275
CGCGAACC | 0.139
CCCTCGGC | 0.282
GAGTCTCC | -0.0445
CAAATCTA | -0.0581
GCAAACAC | -0.0972
GAACCCGA | 0.0906
CAGAACGC | -0.0829
GCACTACC | -0.00491
GCAATCCC | 0.0287
GAATGAAC | 0.197
AGGTAACA | 0.0395
ACAGTCGA | -0.165
AAGCAGCG | 0.0829
AAAAGAAA | 0.236

Four records picked at random from the list so far, as already listed:
Sequence | PBM E-score
CTGTTCTC | 0.03
GCAATCCC | 0.0287
CAAAGGCG | -0.0505
ATTGTGAA | 0.0416

Later entries.

Sequence | PBM E-score
AGTTCTGA | 0.0568
ATTCCGGG | 0.356
AGGTAATC | 0.0784
CGCGTATC | -0.052
AAAGGGCA | -0.226
ATAAGACA | -0.0537
CAACTTCA | -0.027
TGGGAACA | -0.0108
CTGCTTAC | -0.142
ACAACAGC | 0.0103
AGCCCACG | -0.0881
ACGCAAAG | -0.113
AAAGTCCT | -0.0231
GTGTCTAA | 0.122
ACGACTTG | -0.175
CATGAAGA | 0.091
AAGGGAGT | -0.301
GTCCTATA | -0.16
AGACGAAG | 0.0368
